Laboratory results taken from paper PMC9658070.

Chains of the proteins cited; added tags and fusions are not shown. Lines headed by an entry give the natural chain unless they say otherwise; changes in a name come on top.
UniProt Q9HE07: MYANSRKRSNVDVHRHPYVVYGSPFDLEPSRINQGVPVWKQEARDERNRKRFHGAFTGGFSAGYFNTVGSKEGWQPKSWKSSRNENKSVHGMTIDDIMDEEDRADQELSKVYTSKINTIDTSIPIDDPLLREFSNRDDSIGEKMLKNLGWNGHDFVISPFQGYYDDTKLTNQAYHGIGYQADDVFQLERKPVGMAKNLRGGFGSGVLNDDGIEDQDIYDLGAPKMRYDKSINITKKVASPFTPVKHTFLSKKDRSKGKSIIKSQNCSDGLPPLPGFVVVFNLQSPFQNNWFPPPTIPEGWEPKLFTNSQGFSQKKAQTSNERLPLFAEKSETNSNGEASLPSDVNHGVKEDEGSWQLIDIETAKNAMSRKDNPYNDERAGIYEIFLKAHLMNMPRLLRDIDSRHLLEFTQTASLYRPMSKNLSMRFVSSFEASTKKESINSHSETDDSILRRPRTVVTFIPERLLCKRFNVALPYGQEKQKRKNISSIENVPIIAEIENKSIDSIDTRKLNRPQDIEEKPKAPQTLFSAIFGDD

Experiments:
Assay in all cases: two-hybrid; Matchmaker GAL4 system, BD fusions in pAS2-1 and AD fusions in pGADT7, S. cerevisiae PJ69-4A; growth on SD-L,W,A and colour on SD-L,W with X-gal, 30 °C, 48 h
[1] = target: Gpl1(M), middle region of Gpl1 (111-259 aa) (Y2H fusion) (S. pombe) (UniProt Q9HE07)
[2] = target: full-length Gpl1 (Y2H fusion) (S. pombe) (UniProt Q9HE07)
[3] = target: Wdr83 (Y2H fusion) (S. pombe)

binding [1]: binds
binding [2]: binds
binding [3]: no binding
B1: Gih35 (Y2H fusion) (protein, UniProt Q9HE06 1-647)
chain: MPNEFISQSLSTLTNTPLNIQKKLLPITKYRNQLLYAVEQNQITIVLGHTGCGKTTQIPQFLYEAGWASQNGIIGCTQPRRLVAKSVSERVSLELNSPPGSLCGYSIQFDHNVSEKTKIKYMTDGILLNEIFFDPLLERYSIVILDEVHERTLSTDLLLGVLKRILEKRNDFRLVLSSASVDANKLSQFFGQDKVCTMSIEGKLFPVETLFLQKPTENYVDSAIETVININSTYPPGDILVFLSGRKEIEYCIKKIEDSLIHASEDCQTLVPLPLHAGLTVDEQMRVFNIYDGDFRKVIFSTNIAETSITIDGIVYVVDSGFNKQRIYNPYTRTSKLINVPISKSSAIQRSGRAGRTMRGKVFRLYTEKAYSLMKEEFEADILNCDMSPLVLFLKGLGLKNILQFPFFVRPPTVHLMAALEDLYLLGVLDESGNLTDPLGIQISNSFLDANISKALLTSNQFGCTHEILSIASILTAGEVFYNPTSSSKNDAFVAHSSFFANEGDIITALNVFESFVGNKKDLQWCRKNYLNYQTLRQALDIRTHLVRFLNKFSIPTAQRLPSSDCSKILKCLLDGFVRNVAHLQNDGSYKTIGGKQVWLDSSSVLHEKKTPWIMYSSAVESETQIFVKNISKIESFWLDKYYKREK

These are yes or no findings as the source states them, for the method shown. For part of these data: A result given as binding can be weak or reduced; the word gives no strength. Sequences can lack the tags named with a protein.
